From the supplement of paper PMC10735217 come the findings set out here.

The experiment concerns HEK293A TEAD-LUC reporter. Kind of experiment: TEAD-luciferase reporter activity (YAP activation), robust Z score vs plate; higher = stronger YAP/TEAD activation. The note with it: 24 h.

Structures can show the parent of a compound that is named as a salt. The list shows a part of the results. Repeats in this data set agree poorly, so a single value says little.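 In a drug-repurposing library screen, luminescence reads luciferase driven by eight TEAD-binding elements, stably integrated into human kidney-derived cells. Compounds scoring over five robust Z scores above the plate mean are called hits.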

Consider `O=C(NC1CCN(Cc2cccc(-c3ccc(F)c(F)c3)c2)CC1)c1ccccc1`, for which the TEAD-luciferase reporter activity by setting is: (compound concentration: 200 nM) inactive: 3.14; (compound concentration: 10 uM) active: 6.77.
Take `CCCCN1C[C@H](O)[C@@H](O)[C@@H](O)[C@H]1CO` [Lucerastat]: the TEAD-luciferase reporter activity is inactive: -0.33 (compound concentration: 200 nM), inactive: 0.0191 (compound concentration: 2 uM) and inactive: -0.573 (compound concentration: 10 uM).
With `Cc1ccc2occ(-c3nnn[nH]3)c(=O)c2c1`, the TEAD-luciferase reporter activity was inactive: 0.0452 (compound concentration: 200 nM), inactive: 4.46 (compound concentration: 2 uM) and inactive: 1.08 (compound concentration: 10 uM).
Turning to `CCCCCC(O)CC(=O)CCc1ccc(O)c(OC)c1` (configuration not stated) [[6]-gingerol], the TEAD-luciferase reporter activity (compound concentration: 2 uM) is inactive: 1.5.
`CCCCCC(O)CC(=O)CCc1ccc(O)c(OC)c1` (configuration not stated) [6-Gingerol]: the TEAD-luciferase reporter activity is inactive: 0.521 (compound concentration: 200 nM), inactive: 3.79 (compound concentration: 2 uM) and inactive: -0.117 (compound concentration: 10 uM).
The corresponding values for `CC(=O)NCC1CN(c2ccc(C(C)=O)cc2)C(=O)O1` (configuration not stated) are inactive: 2.31, inactive: 0.177 and inactive: -0.893.
As to `CN(C)CC1CCn2cc(c3ccccc32)C2=C(C(=O)NC2=O)c2cn(c3ccccc23)CCO1` (configuration not stated) [Ruboxistaurin hydrochloride], the TEAD-luciferase reporter activity (compound concentration: 200 nM) was inactive: -0.359, the TEAD-luciferase reporter activity (compound concentration: 2 uM) was inactive: 1.2 and the TEAD-luciferase reporter activity (compound concentration: 10 uM) was inactive: 1.15.
The corresponding values for `CCCCCCCCCCCCCCOc1ccc(C(C)=O)o1` are inactive: -1.13, inactive: 0.943 and inactive: 1.01.
With `C[C@H](Nc1cc(-c2cnn(C)c2)cc(Nc2cnccn2)n1)c1ccc(F)cc1`, the TEAD-luciferase reporter activity was inactive: -2.69 (compound concentration: 200 nM) and inactive: -1.39 (compound concentration: 10 uM).
Consider `C[C@H](N[C@@H](CCc1ccccc1)C(=O)O)C(=O)N1C(C(=O)O)CC2CCCC[C@H]21` (some centres not stated) [trandolaprilat], for which the TEAD-luciferase reporter activity is inactive: 0.051 (compound concentration: 200 nM), inactive: -0.685 (compound concentration: 2 uM) and inactive: 0.539 (compound concentration: 10 uM).
Take `COc1cc(C(=O)NC2CCN(C)CC2)c(F)cc1Nc1ncc2c(n1)N(C1CCCC1)CC(F)(F)C(=O)N2C`: the TEAD-luciferase reporter activity is inactive: -2.45 (compound concentration: 200 nM), inactive: -0.156 (compound concentration: 2 uM) and inactive: 1.14 (compound concentration: 10 uM).
`Nc1ncc2ncn(CC(CO)CO)c2n1` [Detiviciclovir]: the TEAD-luciferase reporter activity was inactive: -0.687 (compound concentration: 200 nM) and inactive: -0.575 (compound concentration: 10 uM).
For `Cc1ccccc1OCC(O)CNCCn1cc(C)c(=O)[nH]c1=O` (configuration not stated) [primidolol], the TEAD-luciferase reporter activity reads like this: (compound concentration: 200 nM) inactive: -0.515; (compound concentration: 2 uM) inactive: -0.839; (compound concentration: 10 uM) inactive: 0.217.
On the same counts, the results for `COC(=O)C1=C(C)NC(C)=C(C(=O)OCCc2ccc(OCC(O)CO)cc2)C1c1cccc([N+](=O)[O-])c1` (configuration not stated) are inactive: -0.774, inactive: 0.482 and inactive: 3.17.
The corresponding values for `CC(C(=O)O)c1ccc2c(c1)Cc1ccccc1-2` (configuration not stated) [cicloprofen] are inactive: -0.841, inactive: -0.0597 and inactive: -0.225.
On the same counts, the results for `CC1CC2C3CCC4=CC(=O)C=CC4(C)C3(F)C(O)CC2(C)C1(O)C(=O)CCl` (configuration not stated) [clobetasol] are inactive: -1.11, inactive: -0.0877 and inactive: 0.451.
Consider `O=C(O)COc1ccc(CCNS(=O)(=O)c2ccccc2)cc1` [Sulotroban], for which the TEAD-luciferase reporter activity is, setting by setting: (compound concentration: 200 nM) inactive: -1.14; (compound concentration: 2 uM) inactive: -1.78; (compound concentration: 10 uM) inactive: 2.9.
On the same counts, the results for `OC(CC1c2ccccc2-c2cncn21)C1CCCCC1` (configuration not stated) are inactive: -1.03, inactive: -1.76 and inactive: 0.204.
The corresponding values for `Fc1ccc(-c2nc3n(c2-c2ccncc2)CCS3)cc1` are inactive: -1.36, inactive: -0.477 and inactive: -0.221.
Turning to `CC(C)(C)c1cc(-c2csc(CN)n2)cc(C(C)(C)C)c1O`, the TEAD-luciferase reporter activity reads like this: (compound concentration: 200 nM) inactive: -1.16; (compound concentration: 2 uM) inactive: 0.992; (compound concentration: 10 uM) inactive: -0.399.
For the compound `Nc1n[nH]cc1-c1cc(Cl)ccc1Oc1cc(F)c(S(=O)(=O)Nc2cscn2)cc1Cl`, the TEAD-luciferase reporter activity is, setting by setting: (compound concentration: 200 nM) inactive: -1.71; (compound concentration: 2 uM) inactive: -1.1; (compound concentration: 10 uM) inactive: 0.762.
Consider `CN(C)CCCn1c2c(c3ccccc31)CCCCCC2` [Iprindole], for which the TEAD-luciferase reporter activity reads like this: (compound concentration: 200 nM) inactive: -0.782; (compound concentration: 2 uM) inactive: 2.27; (compound concentration: 10 uM) inactive: 3.24.
On to `CC(C)CCOC(CN1CCCC1)c1ccccc1` (configuration not stated), for which the TEAD-luciferase reporter activity is, setting by setting: (compound concentration: 200 nM) inactive: -0.986; (compound concentration: 2 uM) inactive: -0.438; (compound concentration: 10 uM) inactive: -1.47.
On the same counts, the results for `CC(C)=CCC/C(C)=C/CC/C(C)=C/CC[C@@](C)(O)CCC1=C(C)C(=O)C(C)=C(C)C1=O` [Vatiqui] are inactive: -1.37, inactive: -0.58 and inactive: 0.175.
Take `COc1ccc([C@@H]2Sc3ccccc3N(CCN(C)C)C(=O)[C@@H]2OC(C)=O)cc1` [diltiazem]: for the setting “compound concentration: 2 uM”, the TEAD-luciferase reporter activity was inactive: -0.885.
On to `COc1ccc([C@@H]2Sc3ccccc3N(CCN(C)C)C(=O)[C@@H]2OC(C)=O)cc1` [Diltiazem], for which the TEAD-luciferase reporter activity (compound concentration: 2 uM) was inactive: -0.486.
Regarding `COc1ccc([C@@H]2Sc3ccccc3N(CCN(C)C)C(=O)[C@@H]2OC(C)=O)cc1`, the TEAD-luciferase reporter activity (compound concentration: 200 nM) is inactive: -0.652 and the TEAD-luciferase reporter activity (compound concentration: 10 uM) is inactive: 1.83.
Take `Cc1c(C(C)C)c(=O)n(-c2ccccc2)n1C`: the TEAD-luciferase reporter activity (compound concentration: 200 nM) is inactive: -0.249, the TEAD-luciferase reporter activity (compound concentration: 2 uM) is inactive: 2.99 and the TEAD-luciferase reporter activity (compound concentration: 10 uM) is active: 7.39.
As to `CCCOc1ccc([C@H]2CNC(=O)N2c2ccc3[nH]cnc3c2)cc1`, the TEAD-luciferase reporter activity runs as follows: (compound concentration: 200 nM) inactive: 0.218; (compound concentration: 2 uM) inactive: -0.296; (compound concentration: 10 uM) inactive: -0.134.
